Data reported in PMC12160926.
Results are given in words; binding and its absence hold for the method and conditions named. Binding seen in cells or lysates may run through a third protein. These calls come from enrichment with a bait or labelling near it, and not all partners need be listed.

Target: T1, hexokinase domain-containing 1 (HKDC1) (human (endogenous in HK2)) (UniProt Q2TB90)
T1 sequence: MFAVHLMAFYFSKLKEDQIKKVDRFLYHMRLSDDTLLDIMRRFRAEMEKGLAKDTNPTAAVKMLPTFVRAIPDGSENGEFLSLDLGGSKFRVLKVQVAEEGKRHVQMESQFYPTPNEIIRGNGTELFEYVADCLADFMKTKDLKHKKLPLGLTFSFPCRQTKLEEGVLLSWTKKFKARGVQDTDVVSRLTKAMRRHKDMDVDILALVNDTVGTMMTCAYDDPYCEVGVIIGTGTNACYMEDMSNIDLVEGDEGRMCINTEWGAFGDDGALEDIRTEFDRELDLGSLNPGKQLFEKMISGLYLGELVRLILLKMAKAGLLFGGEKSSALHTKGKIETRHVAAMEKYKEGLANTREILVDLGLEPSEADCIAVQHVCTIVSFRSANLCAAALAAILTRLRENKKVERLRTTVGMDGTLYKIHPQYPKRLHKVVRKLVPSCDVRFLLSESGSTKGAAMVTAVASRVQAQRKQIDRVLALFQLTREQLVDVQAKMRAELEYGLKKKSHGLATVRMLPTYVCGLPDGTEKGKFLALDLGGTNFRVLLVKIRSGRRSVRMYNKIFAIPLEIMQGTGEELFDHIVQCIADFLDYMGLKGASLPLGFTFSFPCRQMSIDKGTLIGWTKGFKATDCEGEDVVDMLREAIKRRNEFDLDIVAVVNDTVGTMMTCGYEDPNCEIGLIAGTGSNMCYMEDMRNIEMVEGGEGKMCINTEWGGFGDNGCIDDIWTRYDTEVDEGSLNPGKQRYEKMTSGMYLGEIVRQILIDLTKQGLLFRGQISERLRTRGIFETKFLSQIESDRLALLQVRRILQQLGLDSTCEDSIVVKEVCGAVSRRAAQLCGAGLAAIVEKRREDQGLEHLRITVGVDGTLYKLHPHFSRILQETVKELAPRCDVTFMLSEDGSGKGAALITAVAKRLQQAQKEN
Assay: affinity purification with mass spectrometry; co-IP of HKDC1 from HK2 cells; complexes on magnetic beads digested with trypsin; peptides identified on a Q Exactive and analysed with MaxQuant

Substance: ATPB (from UniProt P06576 48-529)
- binding: binds
